Experimental data from paper PMC9325379.
No constants are given. Whether binding was seen depends on the method and setting. Binding seen in cells or lysates may run through a third protein. Some entries that bind do so weakly or less than the wild type. Where a sequence is shown, tags or fusion partners need not be part of it.

Target: T1, HIS-RelB2 (Mycobacterium tuberculosis RelB2 antitoxin) (Mycobacterium tuberculosis H37Rv) (UniProt O33347)
T1 sequence: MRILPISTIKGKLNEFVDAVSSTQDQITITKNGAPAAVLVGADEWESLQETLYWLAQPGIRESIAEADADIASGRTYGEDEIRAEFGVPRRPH
Assay: pull-down

B1: RelE2-HSV (Mycobacterium tuberculosis RelE2 toxin) (protein, UniProt O33348 1-87)
chain: MPYTVRFTTTARRDLHKLPPRILAAVVEFAFGDLSREPLRVGKPLRRELAGTFSARRGTYRLLYRIDDEHTTVVILRVDHRADIYRR
How did the binding turn out when B1 was run?
The binding was “binds”.
